Results are given in words; binding and its absence hold for the method and conditions named. Binding seen in cells or lysates may run through a third protein.

Chains of the proteins cited; added tags and fusions are not shown.
UniProt O95071: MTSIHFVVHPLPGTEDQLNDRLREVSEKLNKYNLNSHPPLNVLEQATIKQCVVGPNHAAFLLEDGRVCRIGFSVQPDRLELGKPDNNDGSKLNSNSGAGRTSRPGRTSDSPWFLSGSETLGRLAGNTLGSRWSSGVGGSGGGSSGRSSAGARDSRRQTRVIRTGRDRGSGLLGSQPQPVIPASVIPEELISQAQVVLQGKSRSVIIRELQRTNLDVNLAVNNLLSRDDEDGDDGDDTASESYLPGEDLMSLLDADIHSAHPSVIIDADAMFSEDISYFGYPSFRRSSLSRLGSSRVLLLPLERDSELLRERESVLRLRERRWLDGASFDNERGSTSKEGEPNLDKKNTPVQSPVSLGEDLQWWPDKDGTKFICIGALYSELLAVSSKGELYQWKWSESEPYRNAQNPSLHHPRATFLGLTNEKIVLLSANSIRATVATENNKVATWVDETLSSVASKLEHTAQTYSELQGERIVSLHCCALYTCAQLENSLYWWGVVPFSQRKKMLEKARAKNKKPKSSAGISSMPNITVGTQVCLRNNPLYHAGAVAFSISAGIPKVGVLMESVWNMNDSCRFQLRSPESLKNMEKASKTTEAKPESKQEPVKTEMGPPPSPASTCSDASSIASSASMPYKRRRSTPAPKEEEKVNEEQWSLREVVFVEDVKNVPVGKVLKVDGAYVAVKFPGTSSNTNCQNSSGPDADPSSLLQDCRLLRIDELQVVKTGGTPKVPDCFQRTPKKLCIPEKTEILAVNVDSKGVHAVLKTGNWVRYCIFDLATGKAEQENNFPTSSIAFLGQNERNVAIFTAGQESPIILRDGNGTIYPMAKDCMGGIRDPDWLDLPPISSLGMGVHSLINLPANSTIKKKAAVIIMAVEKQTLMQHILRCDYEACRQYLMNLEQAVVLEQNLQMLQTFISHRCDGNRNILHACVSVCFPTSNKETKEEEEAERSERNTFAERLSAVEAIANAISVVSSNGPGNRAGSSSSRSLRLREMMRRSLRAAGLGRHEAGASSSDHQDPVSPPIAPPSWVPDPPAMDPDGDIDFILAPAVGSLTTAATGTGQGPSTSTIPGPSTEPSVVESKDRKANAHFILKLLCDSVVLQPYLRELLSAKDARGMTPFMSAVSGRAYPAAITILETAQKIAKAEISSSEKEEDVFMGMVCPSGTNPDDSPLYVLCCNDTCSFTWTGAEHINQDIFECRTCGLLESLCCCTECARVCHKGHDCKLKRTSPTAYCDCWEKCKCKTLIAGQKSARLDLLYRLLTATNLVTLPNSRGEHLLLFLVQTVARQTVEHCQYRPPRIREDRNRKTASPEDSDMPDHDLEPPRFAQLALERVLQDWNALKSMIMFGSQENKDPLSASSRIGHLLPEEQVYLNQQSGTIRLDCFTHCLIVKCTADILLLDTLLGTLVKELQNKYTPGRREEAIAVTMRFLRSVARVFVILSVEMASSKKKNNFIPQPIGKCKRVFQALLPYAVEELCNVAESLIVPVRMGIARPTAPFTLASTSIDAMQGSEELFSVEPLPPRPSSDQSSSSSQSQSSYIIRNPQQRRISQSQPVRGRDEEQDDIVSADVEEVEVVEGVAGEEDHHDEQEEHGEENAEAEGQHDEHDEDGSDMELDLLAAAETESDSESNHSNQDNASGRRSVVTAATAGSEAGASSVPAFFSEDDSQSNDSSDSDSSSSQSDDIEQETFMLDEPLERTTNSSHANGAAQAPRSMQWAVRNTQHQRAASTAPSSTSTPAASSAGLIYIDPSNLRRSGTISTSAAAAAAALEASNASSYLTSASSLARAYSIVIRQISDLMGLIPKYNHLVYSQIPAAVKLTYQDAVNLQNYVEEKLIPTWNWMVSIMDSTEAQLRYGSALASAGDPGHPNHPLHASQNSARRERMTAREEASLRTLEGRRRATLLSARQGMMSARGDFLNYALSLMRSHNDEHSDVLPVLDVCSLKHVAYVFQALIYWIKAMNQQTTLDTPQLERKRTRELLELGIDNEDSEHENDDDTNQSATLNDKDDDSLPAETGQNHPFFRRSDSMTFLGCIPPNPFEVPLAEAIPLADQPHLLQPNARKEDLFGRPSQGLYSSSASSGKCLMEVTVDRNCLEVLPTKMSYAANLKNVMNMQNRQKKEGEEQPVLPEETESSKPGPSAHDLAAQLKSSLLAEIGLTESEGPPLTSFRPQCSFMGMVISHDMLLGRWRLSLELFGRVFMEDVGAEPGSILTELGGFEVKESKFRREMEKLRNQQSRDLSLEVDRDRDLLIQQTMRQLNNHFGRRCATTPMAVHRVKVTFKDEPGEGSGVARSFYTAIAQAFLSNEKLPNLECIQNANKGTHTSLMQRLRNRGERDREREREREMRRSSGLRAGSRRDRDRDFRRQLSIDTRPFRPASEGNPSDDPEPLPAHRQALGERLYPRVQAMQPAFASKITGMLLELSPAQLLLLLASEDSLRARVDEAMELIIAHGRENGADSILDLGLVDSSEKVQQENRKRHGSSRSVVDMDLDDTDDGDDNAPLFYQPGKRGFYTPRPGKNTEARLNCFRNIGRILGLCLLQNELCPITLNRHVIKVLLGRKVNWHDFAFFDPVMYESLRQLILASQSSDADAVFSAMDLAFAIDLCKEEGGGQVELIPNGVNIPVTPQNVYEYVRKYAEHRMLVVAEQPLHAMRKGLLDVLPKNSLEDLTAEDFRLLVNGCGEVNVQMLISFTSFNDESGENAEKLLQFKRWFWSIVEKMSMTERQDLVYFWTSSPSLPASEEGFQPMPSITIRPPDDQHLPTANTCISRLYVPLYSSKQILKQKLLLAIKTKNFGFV

One molecule from publication PMC10817939 can be followed below.

The assay addresses FLAG-UBR5 (Ubiquitin Protein Ligase E3 Component N-Recognin 5) (UniProt O95071). Kind of assay: co-IP; FLAG-tagged bait or vector expressed in HEK293T cells for 24 h (in some cases then poly (I:C) for 12 h); whole-cell extract in 150 mM NaCl, 50 mM Tris pH 7.5, 1 mM EDTA, 0.5% NP40, 10% glycerol; anti-FLAG magnetic beads overnight at 4 °C; eluted with 3x FLAG peptide; immunoblot. On the technique in general: A western blot detects proteins with antibodies after separation by electrophoresis.

B1: IRF3 (protein, UniProt Q14653 1-427)
chain: MGTPKPRILPWLVSQLDLGQLEGVAWVNKSRTRFRIPWKHGLRQDAQQEDFGIFQAWAEATGAYVPGRDKPDLPTWKRNFRSALNRKEGLRLAEDRSKDPHDPHKIYEFVNSGVGDFSQPDTSPDTNGGGSTSDTQEDILDELLGNMVLAPLPDPGPPSLAVAPEPCPQPLRSPSLDNPTPFPNLGPSENPLKRLLVPGEEWEFEVTAFYRGRQVFQQTISCPEGLRLVGSEVGDRTLPGWPVTLPDPGMSLTDRGVMSYVRHVLSCLGGGLALWRAGQWLWAQRLGHCHTYWAVSEELLPNSGHGPDGEVPKDKEGGVFDLGPFIVDLITFTEGSGRSPRYALWFCVGESWPQDQPWTKRLVMVKVVPTCLRALVEMARVGGASSLENTVDLHISNSHPLSLTSDQYKAYLQDLVEGMDFQGPGES
In the case of B1, the binding entry is listed as “no binding”.
